{"source": "PubChem BioAssay AID1224831, NIAID – 2016", "assay": "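Genes that support or restrain LPS-induced TNF-alpha reporter activity in macrophage-like cells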 (follow-up of hits)", "cells": "human THP-1 B5 monocytic leukaemia cells carrying a TNF promoter luciferase reporter, made macrophage-like with PMA", "reagents": "single siRNA against human genes, 50 nM", "time to read-out": "about 68 h of knock-down, then 4 h LPS", "conditions": "LPS (Salmonella minnesota, TLR-grade) at 10 ng/ml for 4 h; PMA 5 ng/ml present during knock-down", "read-out": "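TNF promoter reporter read as dual luciferase ratio after 4 h LPS, normalised per plate to its median, given as replicate mean robust z-score per siRNA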", "direction": "TNF reporter z-score: higher = stronger LPS-induced TNF reporter signal; z-score, median over gene's siRNAs: higher = stronger TNF reporter signal across the gene's siRNAs", "active means": "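Active when the replicate mean z-score is about -1 or lower, or about 1.5 or higher; lowered and raised TNF reporter signal both count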", "calls": "active = changed TNF reporter (either direction); inactive = little change", "note": "The deposit covers about 3,500 reagents; below is an unselected part. Of all reagents, 731 (21%) were called active. 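Active means either lowered or raised reporter signal; the gene-median score did not drive the per-siRNA calls.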 Reagents against one gene are numbered here."}
{"Target gene":"MKX (mohawk homeobox)","siRNA no.":1,"TNF reporter z-score, replicate mean":-0.49,"z-score, median over gene's siRNAs":-0.02,"activity call":"inactive"}
{"Target gene":"MKX (mohawk homeobox)","siRNA no.":2,"TNF reporter z-score, replicate mean":0.05,"z-score, median over gene's siRNAs":-0.02,"activity call":"inactive"}
{"Target gene":"MKX (mohawk homeobox)","siRNA no.":3,"TNF reporter z-score, replicate mean":1.16,"z-score, median over gene's siRNAs":-0.02,"activity call":"inactive"}
{"Target gene":"MKX (mohawk homeobox)","siRNA no.":4,"TNF reporter z-score, replicate mean":-0.09,"z-score, median over gene's siRNAs":-0.02,"activity call":"inactive"}
{"Target gene":"MKX (mohawk homeobox)","siRNA no.":5,"TNF reporter z-score, replicate mean":-0.73,"z-score, median over gene's siRNAs":-0.02,"activity call":"inactive"}
{"Target gene":"MKX (mohawk homeobox)","siRNA no.":6,"TNF reporter z-score, replicate mean":0.46,"z-score, median over gene's siRNAs":-0.02,"activity call":"inactive"}
{"Target gene":"TSPOAP1 (TSPO associated protein 1)","siRNA no.":1,"TNF reporter z-score, replicate mean":-0.77,"z-score, median over gene's siRNAs":-0.685,"activity call":"inactive"}
{"Target gene":"TSPOAP1 (TSPO associated protein 1)","siRNA no.":2,"TNF reporter z-score, replicate mean":-1.24,"z-score, median over gene's siRNAs":-0.685,"activity call":"active"}
{"Target gene":"TSPOAP1 (TSPO associated protein 1)","siRNA no.":3,"TNF reporter z-score, replicate mean":-0.6,"z-score, median over gene's siRNAs":-0.685,"activity call":"inactive"}
{"Target gene":"TSPOAP1 (TSPO associated protein 1)","siRNA no.":4,"TNF reporter z-score, replicate mean":-1.23,"z-score, median over gene's siRNAs":-0.685,"activity call":"active"}
{"Target gene":"TSPOAP1 (TSPO associated protein 1)","siRNA no.":5,"TNF reporter z-score, replicate mean":-0.38,"z-score, median over gene's siRNAs":-0.685,"activity call":"inactive"}
{"Target gene":"TSPOAP1 (TSPO associated protein 1)","siRNA no.":6,"TNF reporter z-score, replicate mean":2.07,"z-score, median over gene's siRNAs":-0.685,"activity call":"active"}
{"Target gene":"TCAP (titin-cap)","siRNA no.":1,"TNF reporter z-score, replicate mean":6.47,"z-score, median over gene's siRNAs":-0.075,"activity call":"active"}
{"Target gene":"TCAP (titin-cap)","siRNA no.":2,"TNF reporter z-score, replicate mean":-3.09,"z-score, median over gene's siRNAs":-0.075,"activity call":"active"}
{"Target gene":"TCAP (titin-cap)","siRNA no.":3,"TNF reporter z-score, replicate mean":-0.42,"z-score, median over gene's siRNAs":-0.075,"activity call":"inactive"}
{"Target gene":"TCAP (titin-cap)","siRNA no.":4,"TNF reporter z-score, replicate mean":0.54,"z-score, median over gene's siRNAs":-0.075,"activity call":"inactive"}
{"Target gene":"TCAP (titin-cap)","siRNA no.":5,"TNF reporter z-score, replicate mean":-0.64,"z-score, median over gene's siRNAs":-0.075,"activity call":"inactive"}
{"Target gene":"TCAP (titin-cap)","siRNA no.":6,"TNF reporter z-score, replicate mean":0.27,"z-score, median over gene's siRNAs":-0.075,"activity call":"inactive"}
